Results from patent US20210017275A1 (Alector, published 2021).
Results are given in words; binding and its absence hold for the method and conditions named. Some entries that bind do so weakly or less than the wild type. For some of these results: Tags and fused reporters may be left off the sequences shown.

T1: recombinant Siglec-14-Fc (human) (UniProt Q08ET2)
T1 sequence: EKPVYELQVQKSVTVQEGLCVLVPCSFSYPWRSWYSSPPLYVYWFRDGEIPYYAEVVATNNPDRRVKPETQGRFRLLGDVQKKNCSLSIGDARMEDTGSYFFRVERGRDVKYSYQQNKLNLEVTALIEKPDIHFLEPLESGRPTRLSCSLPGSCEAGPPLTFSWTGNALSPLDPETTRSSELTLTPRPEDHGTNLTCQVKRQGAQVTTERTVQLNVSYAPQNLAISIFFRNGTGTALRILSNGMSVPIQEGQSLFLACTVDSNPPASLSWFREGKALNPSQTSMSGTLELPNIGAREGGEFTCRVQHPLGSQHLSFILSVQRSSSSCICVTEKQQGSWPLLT

T2: Human Siglec 5, Fc chimera (R&D Systems) (human) (UniProt O15389)
T2 sequence: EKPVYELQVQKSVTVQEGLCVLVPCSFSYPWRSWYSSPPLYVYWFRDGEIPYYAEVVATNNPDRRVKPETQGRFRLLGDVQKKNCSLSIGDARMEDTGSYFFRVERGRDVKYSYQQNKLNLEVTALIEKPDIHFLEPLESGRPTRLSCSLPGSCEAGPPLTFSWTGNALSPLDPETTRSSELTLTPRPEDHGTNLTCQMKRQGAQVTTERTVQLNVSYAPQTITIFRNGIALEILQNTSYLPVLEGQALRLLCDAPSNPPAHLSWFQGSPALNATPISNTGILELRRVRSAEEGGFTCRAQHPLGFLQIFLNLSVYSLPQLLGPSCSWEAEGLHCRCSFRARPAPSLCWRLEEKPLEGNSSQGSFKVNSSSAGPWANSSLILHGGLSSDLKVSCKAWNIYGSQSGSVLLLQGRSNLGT

T3: human Siglec-5 expressed on human primary cells (human) (UniProt O15389)
T3 sequence: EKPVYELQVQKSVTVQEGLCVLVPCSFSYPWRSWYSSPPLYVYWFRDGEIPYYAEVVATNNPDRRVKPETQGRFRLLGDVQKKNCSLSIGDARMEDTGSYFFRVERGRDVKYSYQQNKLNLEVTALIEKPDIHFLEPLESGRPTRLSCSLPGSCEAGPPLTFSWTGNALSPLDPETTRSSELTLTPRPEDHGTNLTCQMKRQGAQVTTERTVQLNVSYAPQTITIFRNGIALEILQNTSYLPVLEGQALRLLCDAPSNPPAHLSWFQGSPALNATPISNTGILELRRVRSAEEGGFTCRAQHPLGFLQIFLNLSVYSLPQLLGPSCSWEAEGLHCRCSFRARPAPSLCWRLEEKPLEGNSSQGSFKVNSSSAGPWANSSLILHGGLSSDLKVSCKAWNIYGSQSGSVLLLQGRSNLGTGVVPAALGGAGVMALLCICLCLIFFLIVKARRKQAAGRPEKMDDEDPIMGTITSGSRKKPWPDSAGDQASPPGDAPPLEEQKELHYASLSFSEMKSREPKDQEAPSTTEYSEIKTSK

T4: Histidine-tagged human Siglec-5 (NovoProtein) (human) (UniProt O15389)
T4 sequence: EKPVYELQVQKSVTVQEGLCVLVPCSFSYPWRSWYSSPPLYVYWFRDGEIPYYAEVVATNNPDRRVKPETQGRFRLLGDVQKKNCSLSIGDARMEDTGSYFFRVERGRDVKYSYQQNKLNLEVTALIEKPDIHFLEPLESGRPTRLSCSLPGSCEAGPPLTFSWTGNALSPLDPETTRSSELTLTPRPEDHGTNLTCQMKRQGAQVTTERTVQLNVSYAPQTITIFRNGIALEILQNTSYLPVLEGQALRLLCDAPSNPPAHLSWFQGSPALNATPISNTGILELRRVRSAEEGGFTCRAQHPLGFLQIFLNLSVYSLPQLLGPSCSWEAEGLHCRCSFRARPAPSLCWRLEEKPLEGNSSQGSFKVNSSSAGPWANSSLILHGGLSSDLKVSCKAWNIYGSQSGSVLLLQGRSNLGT


Tests used:
[1] = biological target: T1, recombinant Siglec-14-Fc (human); assay: ELISA on plate-coated Siglec-14-Fc (1 ug/mL), antibody at 0.2 ug/ml, anti-mouse IgG-HRP, A450
[2] = biological target: T1, recombinant Siglec-14-Fc (human); assay: ELISA on plate-coated Siglec-14-Fc; antibody at 1, 0.2 and 0.04 ug/mL
[3] = biological target: T1, recombinant Siglec-14-Fc (human); assay: ELISA on plate-coated Siglec-14-Fc (1 ug/mL), antibody at 1 ug/ml, anti-mouse IgG-HRP, A450
[4] = biological target: T1, recombinant Siglec-14-Fc (human); assay: ELISA on plate-coated Siglec-14-Fc (1 ug/mL), antibody at 0.04 ug/ml, anti-mouse IgG-HRP, A450
[5] = biological target: T2, Human Siglec 5, Fc chimera (R&D Systems) (human); assay: ELISA on plate-coated Siglec-5-Fc; antibody at 1, 0.2 and 0.04 ug/mL
[6] = biological target: T3, human Siglec-5 expressed on human primary cells (human); assay: flow cytometry on human primary neutrophils, 10 ug/ml mAb plus labelled secondary antibody
[7] = biological target: T4, Histidine-tagged human Siglec-5 (NovoProtein) (human); assay: SPR (Biacore T200), antibody captured on anti-mouse IgG chip, 15 nM His-tagged human Siglec-5 flowed, 120 s association, 300 s dissociation [Cont.]
[8] = biological target: T2, Human Siglec 5, Fc chimera (R&D Systems) (human); assay: ELISA on plate-coated Siglec-5-Fc (1 ug/mL), antibody at 1 ug/ml, anti-mouse IgG-HRP, A450
[9] = biological target: T3, human Siglec-5 expressed on human primary cells (human); assay: flow cytometry on human primary cells expressing Siglec-5
[10] = biological target: T2, Human Siglec 5, Fc chimera (R&D Systems) (human); assay: ELISA on plate-coated Siglec-5-Fc (1 ug/mL), antibody at 0.04 ug/ml, anti-mouse IgG-HRP, A450
[11] = biological target: T2, Human Siglec 5, Fc chimera (R&D Systems) (human); assay: ELISA on plate-coated Siglec-5-Fc (1 ug/mL), antibody at 0.2 ug/ml, anti-mouse IgG-HRP, A450
[12] = biological target: T3, human Siglec-5 expressed on human primary cells (human); assay: flow cytometry on human primary monocytes, 10 ug/ml mAb plus labelled secondary antibody

Binder	binding [1]	binding [2]	binding [3]	binding [4]	binding [5]	binding [6]	binding [7]	binding [8]	binding [9]	binding [10]	binding [11]	binding [12]
anti-Siglec-5 monoclonal antibody 2G5 (antibody, IgG1, V domains shown) VH: EIQLQQSGPELVKPGASVKVSCKASGYSFTDYNMYWVKQSHGKSLEWIGYIDPYNGNTTYNQRFKGKATLTVDKSSSTAFMHLNSLTSEDAAVYYCATFYGFDGFAYWGQGSLVAVSA VL: QAVVTQESALTTSPGETVTLTCRSSTGAVTTSNYANWVQEKPDHLFTGLIGTTNNRAPGVPARFSGSLIGDKAALTITGAQTEDEAIYFCALWYSNHLVFGGGTKLTVLG	binds	binds	binds	binds	–	–	–	–	–	–	–	–
anti-Siglec-5 monoclonal antibody 8C3 (antibody, IgG1, V domains shown) VH: QVQLQQSGGGLVKPGTSVKLSCKASGYIFTEYIIHWVKQRSGQGLEWIGWFYPGIISIKYNEKFKDKATLTADKSSSTVYMELSRLTSEDSAVYFCAGHEGYDGAMDYWGQGTSVTVSS VL: DVLMTQTPLSLPVSLGDQASISCRCSQSIVHSNGNTYLEWYLQKPGQSPKLLIYRVSNRFSGVPDRFSGSGSGTDFTLKISRVEAEDLGVYYCFQGSHVPWTFGGGTKLEIK	binds	binds	binds	binds	binds	binds	binds	binds	binds	binds	binds	binds
anti-Siglec-5 monoclonal antibody 8A1 (antibody, IgG1, V domains shown) VH: EIQLQQSGPELVKPGASVKVSCKASDYAFTSYNIYWVKQSHGKSLEWIGYIDPYNGGTSYNQTFKGKATLTVDKSSSTAYMHLNSLTSEDSAVYYCAMKVGYEAMDYWGQGTSVTVSS VL: DIVMTQSQKFMSTSVGDRVSVTCKASQNVGTYVAWYQQKPGQSPKALIYSASYRYSGVPDRFTGSGSGTDFTLNISNVQSEDLAEYFCQQFNSYPYTFGGGTKLEIK	binds	binds	binds	binds	–	–	–	–	–	–	–	–
anti-Siglec-5 monoclonal antibody 7A5 (antibody, IgG1, V domains shown) VH: EIQLQQSGPELVKPGASVKVSCKASGYSFTDYNMYWVKQSHGKSLEWIGYIDPYNGGTTYNQKFKGKATLTVDKSSSTAFMHLNSLTSEDSAVFYCAFYYGYYGVPYWGQGTLVTVSA VL: DIVMIQSQKFMSTSVGDRVSVTCKASQNVDTNVAWYQQKPGQSPKALIYSASYRYSGVPDRFTGSGSGTDFTLTISNVQSEDLAEYFCQQYNSFPLTFGSGTKLEIK	binds	binds	binds	binds	–	–	–	–	–	–	–	–
anti-Siglec-5 monoclonal antibody 5H2 (antibody, IgG1, V domains shown) VH: EVQLQQSGPELVKPGASVKVSCKASGYSFTDYNMYWVKQSHGKSLEWIGYIDPYNGGTSYNQKFKGKATLTVDKSSSTAFMLLNSLTSEDSAVYYCALYYDYDGIPYWGQGTLVTVSA VL: DIVMTQSQKFMSTSVGDRVSVTCKASQNVGTNVAWYRQKPGQSPKALIYSASYRYNGVPDRFTGSGSGTDFTLTISNVQSEDLAEYFCQQYNSYPYTFGGGTKLEIK	binds	binds	binds	binds	–	–	–	–	–	–	–	–

Other lines, results leading:

binding [1]	binding [2]	binding [3]	binding [4]	binding [5]	binding [6]	binding [7]	binding [8]	binding [9]	binding [10]	binding [11]	binding [12]	Binder
binds	binds	binds	binds	–	–	–	–	–	–	–	–	anti-Siglec-5 monoclonal antibody 11C6 (antibody, IgG1, V domains shown, also called 1106) VH: QVQLQQSGAELVKPGASVKLSCKASGYTFTEYTIHWVKQRSGQGLEWIGWFYPGSGSIKYNEKFKDKATLTAVKSSSTVYMEFSRLTSEDSAVYFCARQDYDGLGFAYWGQGTLVTVSA VL: DVLMTQTPLSLPVSLGDQASISCRSSQTIVHSNGNTYLEWYLQKPGQSPKLLIYKVSNRFSGVPDRFSGSGSGTDFTLKISRVEAEDLGVYYCFQGSHVPWTFGGGTKLEIK
binds	binds	binds	binds	–	–	–	–	–	–	–	–	anti-Siglec-5 monoclonal antibody 9B1 (antibody, IgG1, V domains shown) VH: QVQLQQSGAELVKPGASVKLSCKASGYTFTEYTIHWVKQRSGQGLEWIGWFYPGSGSIKYNEKFKDKATLTADKSSSTVYMELSRLTSEDSAVYFCARQEEGGIGFDYWGQGTTLTVSS VL: DVLMTQTPLSLLVSLGDQASISCRSSQSIVHSNGNTYLEWYLQKPGQSPKLLIYKVSIRFSGVPDRFSGSGSGTDFTLKISRVEAEDLGVYYCFQGSHVPWTFGGGTKLEIK
binds	binds	binds	binds	–	–	–	–	–	–	–	–	anti-Siglec-5 monoclonal antibody 10B6 (antibody, IgG1, V domains shown) VH: EIQLQQSGPELVKPGASVKVSCKASGYSFTDYNMYWVKQSHGKSLECFGYIDPYNGGPYYNQKFKGKATLTVDKSSSTAFMHLNSLTSEDSAVYYCAFYYGYYGVPYWGQGTLVTVSA VL: DIVMTQSQKFMSTSVGDRVSVTCKASHNVGTSVAWYQQKPGQSPKSLIYSASYRYSGVPDRFTGSGSGTDFTLTISNVQSEDLAEYFCQQYNSYPLTFGSGTKLEIK
binds	binds	binds	binds	–	–	–	–	–	–	–	–	anti-Siglec-5 monoclonal antibody 11H3 (antibody, IgG1, V domains shown) VH: QVQLQQSGPELVKPGASVKVSCKASDYAFTSYNIYWVKQSHGKSLEWIGYIDPYNGGTSYNQTFKGKATLTVDKSSSTAYMHLNSLTSEDSAVYYCAMKVGYEAMDYWGQGTSVTVSS VL: DIQMTQSQKFMSTSVGDRVSVTCKASQNVGTNVAWYQQKPGQSPKALIYSASYRYSGVPDRFTGSGSGTDFTLNISNVQSEDLAEYFCQQFNSYPYTFGGGTKLEIK
binds	binds	binds	binds	–	–	–	–	–	–	–	–	anti-Siglec-5 monoclonal antibody 10F9 (antibody, IgG1, V domains shown) VH: EIQLQQSGPELVKPGASVKVSCKASGYSFTGYNMYWVKQSHGKSFEWIGYIDPYTGGTSYNQRFKGKATLTVDKSSSTAFMHLNSLTSEDSAIYYCALFYDYDGFPYWGQGTLVTVSA VL: DIVMTQSQKFMSTSVGDRVSVTCKASQNVDTNVAWYQQKPGQSPKALIYSASYRYSGVPDRFTGSGSGTDFTLTISNVQSEDLAEYFCQQYNSYPYTFGGGTKLEIK
binds	binds	binds	binds	–	–	–	–	–	–	–	–	anti-Siglec-5 monoclonal antibody 9A5 (antibody, IgG1, V domains shown) VH: QVQLQQSGPELVEPGASVKVSCKASGYAFTSYNMYWVKQSHGKSLEWIGYIDPYNGGTYYDQKFKGRATLTVDKSSSTAHMHLNSLTSEDSAVYYCVFFYEYDGFPYWGQGTLVTVSA VL: DIVLTQSPTLMSASPGEKVTMTCSASSSVSYMYWYQQKPRSSPKPLIYLTSNLASGVPARFSGSGSGTSYSLTISSMEAEDAATYYCQQWSSNPLTFGAGTKLELK
